Laboratory results: PubChem BioAssay AID1259254 (NCATS, 2017)
Assay: 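Finding genes that stop cells copying their DNA twice in one cycle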 (primary screen). Cells: human HCT116 colorectal cancer cells. Reagent: single siRNA against human genes. Time to read-out: 3 days. Detection: 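Nuclei stained with Hoechst and imaged; cell-cycle phase assigned by DNA content; G2 share scaled per plate, non-targeting siRNA 0%, GMNN siRNA 100%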. Reading the numbers: G2 robust z-score and G2 cells, % of GMNN control: higher = more G2 cells, more excess DNA replication; raw share of cells in G2: higher = larger share of cells with G2 DNA content. Rule for the call: 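Active siRNAs have a G2 robust z of 5 or more median absolute deviations over the median, which in these data means about 38% or higher of GMNN control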.
In all, the deposit lists about 59,000 reagents; this is an unselected part. About 1,550 of them (2.6%) were called active. 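G2 share is only a proxy for re-replication; each gene was hit by three separate siRNAs, and active genes were retested.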 Raw values vary from plate to plate and are shown uncorrected. A number with no mark means an inactive call. Reagents against one gene are numbered here. Reagent sequences are not shown. Not given: the amount of reagent.

The opening 2 entries, ahead of the listing:
| G2 robust z-score | G2 cells, % of GMNN control | raw share of cells in G2 (%) | gene knocked down | reagent |
| --- | --- | --- | --- | --- |
| -0.548 | -0.886 | 2.82 | SPDYE21 | 1 |
| -1.17 | -5.26 | 1.59 | SPDYE21 | 2 |

Main list, repeating the preview:
| G2 robust z-score | G2 cells, % of GMNN control | raw share of cells in G2 (%) | gene knocked down | reagent |
| --- | --- | --- | --- | --- |
| -0.548 | -0.886 | 2.82 | SPDYE21 | 1 |
| -1.17 | -5.26 | 1.59 | SPDYE21 | 2 |
| -0.345 | 0.54 | 3.62 | SPDYE21 | 3 |
| 0.144 | 3.98 | 5.13 | NOXA1 | 1 |
| 2.15 | 18.1 | 13.6 | NOXA1 | 2 |
| -0.303 | 0.838 | 6.06 | NOXA1 | 3 |
| 0.0377 | 3.23 | 4.88 | REP15 | 1 |
| 2.09 | 17.7 | 11.1 | REP15 | 2 |
| -0.643 | -1.56 | 3.97 | REP15 | 3 |
| 1.15 | 11 | 7.55 | NSMCE4A | 1 |
| 0.132 | 3.9 | 5.91 | NSMCE4A | 2 |
| 5.44 (active) | 41.3 | 16.8 | NSMCE4A | 3 |
| 5.9 (active) | 44.4 | 14.5 | CCDC7 | 1 |
| -0.253 | 1.19 | 4.94 | CCDC7 | 2 |
| -0.33 | 0.648 | 4.59 | CCDC7 | 3 |
| 1.14 | 11 | 7.56 | CCDC7 | 4 |
| -0.666 | -1.72 | 2.54 | CCDC7 | 5 |
| 0.937 | 9.56 | 6.25 | CCDC7 | 6 |
| -0.044 | 2.66 | 5.82 | WFDC10A | 1 |
| 0.52 | 6.62 | 9.12 | WFDC10A | 2 |
| 0.447 | 6.11 | 6.94 | WFDC10A | 3 |
| 0.00852 | 3.03 | 5.54 | VPS35L | 1 |
| 1.14 | 11 | 9.72 | VPS35L | 2 |
| -0.455 | -0.236 | 2.95 | VPS35L | 3 |
| 3.74 | 29.3 | 15 | RABGGTB | 1 |
| 4.85 | 37.1 | 18.8 | RABGGTB | 2 |
| -0.204 | 1.53 | 4.66 | RABGGTB | 3 |
| -0.261 | 1.13 | 4.79 | ANKMY2 | 1 |
| 2.64 | 21.5 | 14.7 | ANKMY2 | 2 |
| 0.34 | 5.36 | 4.73 | ANKMY2 | 3 |
| -0.974 | -3.89 | 2.21 | C18orf54 | 1 |
| -0.253 | 1.19 | 3.36 | C18orf54 | 2 |
| 0.412 | 5.87 | 4.62 | C18orf54 | 3 |
| 5.55 (active) | 42 | 22.8 | RPL26 | 1 |
| 1.16 | 11.1 | 8.62 | RPL26 | 2 |
| 8.68 (active) | 64 | 26.5 | RPL26 | 3 |
| 1.71 | 15 | 12.1 | RBM12 | 1 |
| -0.917 | -3.48 | 2.49 | RBM12 | 2 |
| -0.253 | 1.18 | 3.84 | RBM12 | 3 |
| 3.95 | 30.8 | 14.3 | PI4KAP2 | 1 |
| -0.22 | 1.42 | 4.02 | PI4KAP2 | 2 |
| 1.38 | 12.7 | 10.1 | PI4KAP2 | 3 |
| 2.87 | 23.1 | 10.6 | SYCP2L | 1 |
| 0.481 | 6.35 | 5.88 | SYCP2L | 2 |
| -0.816 | -2.78 | 2.18 | SYCP2L | 3 |
| -0.309 | 0.792 | 3.83 | FRG1 | 1 |
| 1.17 | 11.2 | 10.5 | FRG1 | 2 |
| -0.793 | -2.61 | 3.13 | FRG1 | 3 |
| 2.83 | 22.9 | 12.5 | AUH | 1 |
| 4.08 | 31.6 | 16.3 | AUH | 2 |
| 0.492 | 6.43 | 6.38 | AUH | 3 |
| -0.582 | -1.13 | 5.44 | PTGIR | 1 |
| -0.51 | -0.623 | 4.3 | PTGIR | 2 |
| -0.711 | -2.03 | 2.65 | PTGIR | 3 |
| -0.199 | 1.57 | 4.05 | PRDM4 | 1 |
| -0.759 | -2.37 | 4.93 | PRDM4 | 2 |
| 0.442 | 6.08 | 5.88 | PRDM4 | 3 |
| -0.585 | -1.15 | 3.98 | PRND | 1 |
| 1.43 | 13 | 9.57 | PRND | 2 |
| 1.38 | 12.7 | 7.72 | PRND | 3 |
| -0.896 | -3.34 | 2.41 | MFSD6 | 1 |
| -0.888 | -3.28 | 2.89 | MFSD6 | 2 |
| 0.0472 | 3.3 | 4.28 | MFSD6 | 3 |
| 1.9 | 16.4 | 10.7 | CSNK1G1 | 1 |
| -1.27 | -5.95 | 3.03 | CSNK1G1 | 2 |
| 2.12 | 17.9 | 9.4 | CSNK1G1 | 3 |
| 0.393 | 5.73 | 6.13 | LOC729040 (retired record) | 1 |
| -0.628 | -1.45 | 2.85 | LOC729040 (retired record) | 2 |
| 0.406 | 5.82 | 5.37 | LOC729040 (retired record) | 3 |
